In paper PMC5996148 one finds binding signal data, which are given here for one sequence.

Chains of the proteins cited; added tags and fusions are not shown. Lines headed by an entry give the natural chain unless they say otherwise; changes in a name come on top.
UniProt Q15286: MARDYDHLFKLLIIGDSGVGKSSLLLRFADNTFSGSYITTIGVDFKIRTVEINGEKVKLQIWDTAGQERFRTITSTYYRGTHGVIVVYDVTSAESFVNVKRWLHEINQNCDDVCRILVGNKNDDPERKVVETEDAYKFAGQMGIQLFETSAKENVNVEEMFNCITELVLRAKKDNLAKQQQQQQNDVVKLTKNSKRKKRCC

Some of the results follow. For some of these results: The exact form of the protein is not confirmed.

Among the test systems are RAB1B (human); RAB27A (human); RAB33B (human); RAB3B (human); RAB3IL1 (human); RAB4A (human).
Common to all, as to assay: protein microarray (ProtoArray v5.0), streptavidin-Alexa Fluor 647
Holding throughout (conditions): 3'-biotin; 20 mM Tris (pH 7.5), 5 mM MgCl2, 100 mM KCl, 0.1% Tween-20, A/T-rich and random oligonucleotide blockers; temperature not stated; high values mean tight binding

For assay [1], the system named is Pyrroline-5-carboxylate reductase 1, mitochondrial (human).
Assay [2] deals with Pyruvate kinase isozymes R/L (human).
In another assay the target is RAB35 (UniProt Q15286).
In a further assay the target is T1, RAB9A (UniProt P51151).
T1 sequence: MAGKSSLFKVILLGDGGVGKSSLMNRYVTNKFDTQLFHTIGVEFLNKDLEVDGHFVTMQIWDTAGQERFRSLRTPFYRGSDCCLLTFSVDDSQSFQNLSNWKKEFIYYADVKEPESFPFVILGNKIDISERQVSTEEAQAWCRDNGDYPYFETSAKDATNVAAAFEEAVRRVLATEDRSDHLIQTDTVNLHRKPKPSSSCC

In the case of “GGGGACAGGGGTATGGGGAGGGG [G4-3 biotinylated (CtG)]”, the binding signal in [1] was -0.33 z-score; in [2], -0.323 z-score; with RAB1B (human), -0.33 z-score; in the assay with RAB27A (human), -0.337 z-score; in the assay with RAB33B (human), -0.327 z-score; with RAB35, 5.81 z-score. The binding signal is -0.328 z-score in the assay on RAB3B (human), -0.302 z-score with RAB3IL1 (human), -0.306 z-score in the assay on RAB4A (human) and -0.321 z-score with RAB9A.
